The supplement of paper PMC10849652
This is one part of the list. Residues, ends and D or L forms follow the SMILES beside them. *: point of attachment. Cbz = O=C(OCc1ccccc1)*

Amino acid sequences for entries named in this document (tags omitted). A change or cut given only in a name is not applied to a line headed by its entry.
UniProt Q9NWS0, whole entry, looked up: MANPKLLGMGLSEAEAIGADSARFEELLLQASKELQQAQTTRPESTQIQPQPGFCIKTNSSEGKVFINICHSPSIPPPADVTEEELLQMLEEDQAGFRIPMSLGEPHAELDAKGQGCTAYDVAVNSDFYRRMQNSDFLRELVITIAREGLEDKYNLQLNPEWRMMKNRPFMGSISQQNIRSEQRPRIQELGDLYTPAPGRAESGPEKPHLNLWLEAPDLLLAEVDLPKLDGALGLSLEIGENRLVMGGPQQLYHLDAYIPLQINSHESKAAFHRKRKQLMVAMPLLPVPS
UniProt Q32M88: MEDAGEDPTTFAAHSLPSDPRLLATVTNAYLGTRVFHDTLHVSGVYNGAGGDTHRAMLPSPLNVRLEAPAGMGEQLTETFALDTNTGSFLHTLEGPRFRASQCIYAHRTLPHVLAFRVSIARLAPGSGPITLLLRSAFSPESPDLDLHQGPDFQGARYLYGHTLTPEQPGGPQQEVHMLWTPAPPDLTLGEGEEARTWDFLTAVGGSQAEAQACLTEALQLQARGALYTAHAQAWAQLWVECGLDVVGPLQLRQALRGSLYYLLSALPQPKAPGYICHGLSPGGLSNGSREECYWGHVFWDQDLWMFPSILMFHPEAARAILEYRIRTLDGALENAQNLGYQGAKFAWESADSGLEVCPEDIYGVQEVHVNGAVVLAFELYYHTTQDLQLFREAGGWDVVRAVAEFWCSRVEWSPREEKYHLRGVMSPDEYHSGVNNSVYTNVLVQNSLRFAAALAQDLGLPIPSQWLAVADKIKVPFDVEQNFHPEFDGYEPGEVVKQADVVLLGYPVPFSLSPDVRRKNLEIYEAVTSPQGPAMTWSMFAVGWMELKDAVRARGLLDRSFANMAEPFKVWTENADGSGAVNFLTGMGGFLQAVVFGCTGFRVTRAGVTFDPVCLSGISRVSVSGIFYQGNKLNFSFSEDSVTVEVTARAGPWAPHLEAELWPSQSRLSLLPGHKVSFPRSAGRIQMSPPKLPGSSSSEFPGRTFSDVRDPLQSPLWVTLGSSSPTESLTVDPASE
UniProt Q13526, whole entry, looked up: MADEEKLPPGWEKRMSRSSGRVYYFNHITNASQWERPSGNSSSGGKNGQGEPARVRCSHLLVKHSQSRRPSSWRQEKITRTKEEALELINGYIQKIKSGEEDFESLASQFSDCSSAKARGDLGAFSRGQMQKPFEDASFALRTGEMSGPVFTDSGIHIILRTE
UniProt Q8IWS0: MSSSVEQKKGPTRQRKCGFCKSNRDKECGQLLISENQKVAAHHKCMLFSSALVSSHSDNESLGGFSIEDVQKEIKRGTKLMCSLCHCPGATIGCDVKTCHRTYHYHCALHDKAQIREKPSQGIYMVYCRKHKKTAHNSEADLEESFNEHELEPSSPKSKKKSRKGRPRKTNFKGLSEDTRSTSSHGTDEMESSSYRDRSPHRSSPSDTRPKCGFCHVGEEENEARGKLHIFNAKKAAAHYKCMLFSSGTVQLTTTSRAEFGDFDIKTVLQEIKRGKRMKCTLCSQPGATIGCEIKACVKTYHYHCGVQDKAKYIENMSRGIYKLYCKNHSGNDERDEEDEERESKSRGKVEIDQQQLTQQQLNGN
UniProt Q7RTV0, whole entry, looked up: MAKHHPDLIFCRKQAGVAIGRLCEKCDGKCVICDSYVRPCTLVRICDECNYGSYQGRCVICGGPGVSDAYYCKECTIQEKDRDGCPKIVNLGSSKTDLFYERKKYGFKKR
UniProt O15173: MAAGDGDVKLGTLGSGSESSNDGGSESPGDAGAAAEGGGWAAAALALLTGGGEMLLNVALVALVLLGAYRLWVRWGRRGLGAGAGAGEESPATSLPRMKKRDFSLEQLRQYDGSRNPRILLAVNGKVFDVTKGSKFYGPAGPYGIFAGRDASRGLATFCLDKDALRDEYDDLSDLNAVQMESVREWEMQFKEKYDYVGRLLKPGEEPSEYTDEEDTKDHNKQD
UniProt O15067: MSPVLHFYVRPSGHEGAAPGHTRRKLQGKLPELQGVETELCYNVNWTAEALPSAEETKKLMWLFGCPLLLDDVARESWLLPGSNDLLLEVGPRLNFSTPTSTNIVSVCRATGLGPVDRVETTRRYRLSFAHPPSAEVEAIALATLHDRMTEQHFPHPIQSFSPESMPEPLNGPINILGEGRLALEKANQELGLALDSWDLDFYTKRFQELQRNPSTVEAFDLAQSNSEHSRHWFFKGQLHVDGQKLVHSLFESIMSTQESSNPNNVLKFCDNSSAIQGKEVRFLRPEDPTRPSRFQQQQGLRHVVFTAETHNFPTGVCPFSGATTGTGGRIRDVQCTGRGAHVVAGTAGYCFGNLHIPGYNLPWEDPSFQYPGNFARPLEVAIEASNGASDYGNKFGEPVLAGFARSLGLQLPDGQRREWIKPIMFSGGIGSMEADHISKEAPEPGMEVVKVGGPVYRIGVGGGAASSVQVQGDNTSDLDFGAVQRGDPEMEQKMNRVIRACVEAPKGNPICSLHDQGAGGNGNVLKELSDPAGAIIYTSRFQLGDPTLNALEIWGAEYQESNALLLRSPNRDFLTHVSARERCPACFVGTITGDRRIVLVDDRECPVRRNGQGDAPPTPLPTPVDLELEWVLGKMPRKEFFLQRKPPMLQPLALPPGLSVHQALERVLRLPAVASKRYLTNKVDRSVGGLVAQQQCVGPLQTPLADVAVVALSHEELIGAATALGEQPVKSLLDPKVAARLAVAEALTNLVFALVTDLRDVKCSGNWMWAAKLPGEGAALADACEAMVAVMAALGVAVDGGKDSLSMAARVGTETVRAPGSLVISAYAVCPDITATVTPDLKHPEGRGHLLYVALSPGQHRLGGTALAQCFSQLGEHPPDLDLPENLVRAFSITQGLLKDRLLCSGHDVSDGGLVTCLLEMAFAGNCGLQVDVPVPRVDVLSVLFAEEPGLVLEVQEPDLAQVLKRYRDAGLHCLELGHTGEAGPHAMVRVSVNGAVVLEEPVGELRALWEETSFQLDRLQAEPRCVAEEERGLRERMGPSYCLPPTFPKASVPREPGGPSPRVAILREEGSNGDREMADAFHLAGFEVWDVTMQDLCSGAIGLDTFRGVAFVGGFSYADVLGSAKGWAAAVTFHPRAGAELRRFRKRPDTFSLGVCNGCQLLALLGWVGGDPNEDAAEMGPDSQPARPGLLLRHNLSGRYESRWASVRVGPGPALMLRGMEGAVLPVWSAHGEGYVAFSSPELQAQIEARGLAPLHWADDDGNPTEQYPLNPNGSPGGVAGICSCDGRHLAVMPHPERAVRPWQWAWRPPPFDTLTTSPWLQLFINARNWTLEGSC
UniProt O75167: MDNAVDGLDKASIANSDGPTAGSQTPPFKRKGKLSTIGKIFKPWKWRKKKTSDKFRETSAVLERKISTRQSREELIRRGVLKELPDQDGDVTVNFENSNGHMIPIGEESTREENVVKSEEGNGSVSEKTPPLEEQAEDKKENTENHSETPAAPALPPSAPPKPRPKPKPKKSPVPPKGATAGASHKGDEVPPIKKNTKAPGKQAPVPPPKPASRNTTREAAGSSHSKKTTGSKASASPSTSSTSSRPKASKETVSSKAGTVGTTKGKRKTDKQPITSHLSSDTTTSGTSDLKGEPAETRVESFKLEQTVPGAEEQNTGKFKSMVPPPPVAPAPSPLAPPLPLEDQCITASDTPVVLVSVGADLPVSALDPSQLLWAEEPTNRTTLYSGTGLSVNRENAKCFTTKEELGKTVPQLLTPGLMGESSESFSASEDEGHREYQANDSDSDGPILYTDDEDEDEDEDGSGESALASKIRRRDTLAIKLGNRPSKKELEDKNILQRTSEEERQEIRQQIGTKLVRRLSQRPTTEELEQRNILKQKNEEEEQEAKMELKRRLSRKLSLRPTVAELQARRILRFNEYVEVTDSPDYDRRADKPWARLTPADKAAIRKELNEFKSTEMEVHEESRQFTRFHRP

Legend:
Assay in all cases: log2 fold change, soluble protein after heating vs DMSO (PISA); higher = thermal stabilisation; K562 cells, 10 uM, 30 min; active = over 0.2 and 3.5 SD of the protein, either way, in both replicates (recomputed)
[1] = compound: C#Cc1cccc(Nc2ncnc3cc(OCCOC)c(OCCOC)cc23)c1 [erlotinib]
Outline: (§1)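 Aliquots of K562 cells (2×10^6 cells/mL) treated with 10 μM compound for 30 min were heated for 3 min over 48°C-58°C. After pooling and extraction in PBS with 0.5% NP-40 at 4°C, soluble protein from a 21,000xg, 90 min spin was quantified by TMTpro 16plex LC-MS/MS with channel sums equalised. Thermal stability is expressed against control samples, from duplicates, as a log2 fold change.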

[2] = compound: C/C(=N\NC(=O)C1=CC(=CC=C1)S(=O)(=O)N2CCOCC2)/C3=C(C=CC(=C3)Cl)O
Outline: as §1

[3] = compound: C1=CC(=C(C=C1Cl)C2=NC3=NC=CN=C3C(=N2)NC4=CC=NC=C4)F
Outline: as §1

[4] = compound: C1=CC(=CC=C1C2=NC3=C(N2)C=C(C=C3)C(=O)N)OC4=CC=C(C=C4)Cl
Outline: as §1

[5] = compound: C1=CC2=C(C=CC(=C2)/C=C\3/C(=O)NC(=NCC4=CC=CS4)S3)N=C1
Outline: as §1

[6] = compound: C1=CC2=NC=CN=C2C=C1/C=C/3\C(=O)NC(=O)S3
Outline: as §1

[7] = compound: C1=CC=C(C=C1)C2=NC(=C(N2)C3=CC=NC=C3)C4=CC(=C(C=C4)Cl)O
Outline: as §1

[8] = compound: C1=CC=C2C(=C1)C3=NNC4=CC=CC(=C43)C2=O
Outline: as §1

[9] = compound: C1CCN(C1)C(=O)NC2=CC=CC(=C2)NC3=NC=C(C(=N3)NCCC4=CN=CN4)Br
Outline: as §1

[10] = compound: C1CN(CCC1(CC2=CC=C(C=C2)Cl)N)C3=NC=NC4=C3C=CN4
Outline: as §1

[11] = compound: C1COCCN1CCN2C3=CC=CC=C3N=C2NC(=O)C4=CC(=CC=C4)[N+](=O)[O-] [IRAK-1-4 Inhibitor I]
Outline: as §1

[12] = compound: C=CC(=O)N1CCC[C@@H](n2nc(-c3ccc(Oc4ccccc4)cc3)c3c(N)ncnc32)C1 [ibrutinib]
Outline: as §1

[13] = compound: CC(=O)c1cnc2ccc(-c3cc(Cl)c(O)c(Cl)c3)nc2c1N[C@H]1CC[C@H](CN(C)C)CC1
Outline: as §1

[14] = compound: CC(C)(C)Cn1c(N)nc2ccc(-c3[nH]c(C(C)(C)C)nc3-c3ccc(F)cc3)nc21 [ralimetinib]
Outline: as §1

[15] = compound: CC(C)(O)CC(=O)NCCn1ccc2ncnc(Nc3ccc(Oc4cccc(C(F)(F)F)c4)c(Cl)c3)c21
Outline: as §1

[16] = compound: CC(C)C1=C2N=C(C=C(N2N=C1)NCC3=CC=CC=C3)NCCCCCCN
Outline: as §1

[17] = compound: CC(C)C[C@@H](C=O)NC(=O)[C@H](CC(C)C)NC(=O)[C@H](CC(C)C)NC(=O)OCc1ccccc1
Outline: as §1

[18] = compound: CC(C)N(C[C@H]1O[C@@H](n2cnc3c(N)ncnc32)[C@H](O)[C@@H]1O)[C@H]1C[C@@H](CCc2nc3cc(C(C)(C)C)ccc3[nH]2)C1 [pinometostat]
Outline: as §1

[19] = compound: CC1=C(C(CC(=O)N1)C2=CC=C(C=C2)C(F)(F)F)C(=O)NC3=C(C=C4C(=C3)C=NN4)F
Outline: as §1

[20] = compound: CC1=C(C2=C(C=C1)C(=O)C3=CC=CC=C3N2CCCN)C
Outline: as §1

Measured: log2 fold change

PIH1D1 (UniProt Q9NWS0)
inactive: [1] -0.009 | [2] 0.054 | [3] -0.064 | [4] 0.003 | [5] 0.01 | [6] 0.06 | [7] -0.037 | [8] 0.012 | [9] -0.042 | [10] -0.063 | [11] -0.036 | [12] -0.039 | [13] -0.013 | [14] 0.048 | [15] -0.061 | [16] -0.005 | [17] 0.061 | [18] 0.011 | [19] -0.053 | [20] -0.015

PGGHG (UniProt Q32M88)
inactive: [1] 0.059 | [2] 0.114 | [3] 0.024 | [4] 0.002 | [6] 0.048 | [7] -0.049 | [8] -0.248 | [9] -0.225 | [10] 0.119 | [11] 0.018 | [12] 0.045 | [13] -0.013 | [14] 0.136 | [15] 0.05 | [16] 0.044 | [17] 0.008 | [18] -0.054 | [20] -0.027
active: [5] -0.44

PIN1 (UniProt Q13526)
inactive: [1] -0.015 | [2] 0.097 | [3] 0.003 | [4] -0.002 | [5] -0.008 | [6] 0.016 | [7] 0.049 | [8] -0.001 | [9] -0.062 | [10] -0.017 | [11] 0.039 | [12] 0.033 | [13] -0.016 | [14] -0.077 | [15] 0.032 | [16] 0.096 | [17] 0.005 | [18] -0.027 | [19] -0.005 | [20] 0.001

PHF6 (UniProt Q8IWS0)
inactive: [1] -0.141 | [2] -0.112 | [3] -0.43 | [4] 0.07 | [5] -0.099 | [6] 0.012 | [7] -0.017 | [8] 0.034 | [9] -0.051 | [10] -0.092 | [11] -0.105 | [12] 0.035 | [13] 0.06 | [14] 0.235 | [15] 0.042 | [16] 0.129 | [17] 0.097 | [18] 0.262 | [19] 0.035 | [20] -0.267

PHF5A (UniProt Q7RTV0)
inactive: [1] 0.008 | [2] -0.005 | [3] 0.03 | [4] -0.034 | [5] -0.049 | [6] 0.017 | [7] -0.03 | [8] -0.05 | [9] -0.02 | [10] 0.022 | [11] 0.02 | [12] 0.001 | [13] 0.008 | [14] 0 | [15] 0.088 | [17] -0.073 | [18] -0.073 | [20] 0.109
active: [16] 0.242

PGRMC2 isoform 2 (UniProt O15173)
inactive: [1] 0.017 | [2] 0.006 | [3] 0.048 | [4] -0.018 | [5] -0.041 | [6] 0.008 | [7] 0.021 | [8] -0.015 | [9] -0.002 | [10] 0.03 | [11] 0.067 | [12] 0.055 | [13] 0.007 | [14] -0.003 | [15] 0.014 | [16] 0.039 | [17] -0.017 | [18] -0.037 | [19] 0.003 | [20] 0.006

Two records picked at random from those above, as already listed:
PGGHG (UniProt Q32M88)
inactive: [1] 0.059 | [2] 0.114 | [3] 0.024 | [4] 0.002 | [6] 0.048 | [7] -0.049 | [8] -0.248 | [9] -0.225 | [10] 0.119 | [11] 0.018 | [12] 0.045 | [13] -0.013 | [14] 0.136 | [15] 0.05 | [16] 0.044 | [17] 0.008 | [18] -0.054 | [20] -0.027
active: [5] -0.44

PGRMC2 isoform 2 (UniProt O15173)
inactive: [1] 0.017 | [2] 0.006 | [3] 0.048 | [4] -0.018 | [5] -0.041 | [6] 0.008 | [7] 0.021 | [8] -0.015 | [9] -0.002 | [10] 0.03 | [11] 0.067 | [12] 0.055 | [13] 0.007 | [14] -0.003 | [15] 0.014 | [16] 0.039 | [17] -0.017 | [18] -0.037 | [19] 0.003 | [20] 0.006

Going on with the list.

PFAS (UniProt O15067)
inactive: [1] -0.011 | [2] 0.141 | [3] 0.066 | [4] 0.205 | [5] 0.034 | [6] -0.22 | [7] 0.087 | [8] 0.068 | [9] -0.01 | [10] -0.146 | [11] -0.055 | [12] 0.065 | [13] -0.217 | [14] -0.003 | [15] 0.02 | [16] 0.131 | [17] -0.055 | [18] -0.02 | [20] 0.17

PHACTR2 isoform 4 (UniProt O75167)
inactive: [1] 0.03 | [2] -0.07 | [3] -0.019 | [4] 0.016 | [5] 0.15 | [6] -0.014 | [7] -0.094 | [8] -0.051 | [9] -0.008 | [10] 0.085 | [11] 0.017 | [12] 0.014 | [13] -0.008 | [14] -0.042 | [15] 0.017 | [16] -0.15 | [17] -0.035 | [18] -0.068 | [19] 0.191 | [20] -0.019
